{
  "source": "patent US12590950B2",
  "about": "“Methods for predicting ER-mediated DNA damage” (UNIVERSITY OF MASSACHUSETTS, priority 2019, dated 2026)",
  "origin": "cited, not measured here",
  "settings": "cited from earlier work; for Median blood concentration: human blood",
  "note": "Where two headings read alike, the source gives them in different places.",
  "data": [
    {"molecule": "C[C@]12CC[C@@H]3c4ccc(O)cc4CC[C@H]3[C@@H]1CC[C@@H]2O", "note": "[E2, 17β-estradiol, reference compound]", "values": [
      {"measurement": "Median blood concentration", "setting": "luteal", "value": "0.0002 to 0.0008", "unit": "µM"},
      {"measurement": "Median blood concentration", "setting": "ovulatory", "value": "0.0003 to 0.0018", "unit": "µM"},
      {"measurement": "Median blood concentration", "setting": "pregnancy", "value": 0.074, "unit": "µM"},
      {"measurement": "median level in normal cycling women", "setting": "normal cycling women", "value": "< 2", "unit": "nM"},
      {"measurement": "median level during pregnancy", "setting": "pregnancy", "value": 74, "unit": "nM"}
    ]}
  ]
}
